Data: article doi:10.1101/2022.06.14.496170

Target: T1, PICLN (Arabidopsis thaliana) (Arabidopsis thaliana) (UniProt Q9LVA7)
T1 sequence: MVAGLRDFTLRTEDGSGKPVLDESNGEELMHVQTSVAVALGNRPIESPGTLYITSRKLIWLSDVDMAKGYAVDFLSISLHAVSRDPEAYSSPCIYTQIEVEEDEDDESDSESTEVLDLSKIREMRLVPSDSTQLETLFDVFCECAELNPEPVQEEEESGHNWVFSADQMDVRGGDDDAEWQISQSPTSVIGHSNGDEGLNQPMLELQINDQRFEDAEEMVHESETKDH
Test: two-hybrid

| Substance | binding |
| --- | --- |
| SmGb (Arabidopsis thaliana) | no binding |
| SmE1/PCP (Arabidopsis thaliana) | binds weakly |

No constants are given. Whether binding was seen depends on the method and setting. A result given as binding can be weak or reduced; the word gives no strength.
